Measurements reported in the supplement of paper PMC9233669.
Variants at the floor of the assay are shown more often than the library holds them.

Experiments:
[1] = tested on: biotinyl-Ile-oxazolone; assay: self-aminoacylation, catalytic enhancement (BIO) (fold over background); higher = more active; k-Seq, kA / k0A0; sequences stand for … in GGGAAUGGAUCCACAUCUACGAAUUC…UUCACUGCAGACUUGACGAAGCUG
Procedure, shortened: (§1)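 Mutagenized RNA pools with a 21-nt variable region (0.43 μM) were reacted with each biotinyl-aminoacyl-oxazolone at 2–1250 μM for 90 minutes at room temperature, in 50 μL HEPES/NaCl/KCl/MgCl2/CaCl2 buffer containing 5% acetonitrile at pH 6.9–7.0. RNA captured on streptavidin was quantified by triplicate qPCR and by Illumina sequencing. The fraction reacted for each sequence was fit to a pseudo-first-order model with bootstrapping, and catalytic enhancement is the median kA divided by the uncatalyzed rate, taken as the low-activity peak of a bimodal Gaussian fit.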

[2] = tested on: biotinyl-Val-oxazolone; assay: self-aminoacylation, catalytic enhancement (BVO) (fold over background); higher = more active; k-Seq, kA / k0A0; sequences stand for … in GGGAAUGGAUCCACAUCUACGAAUUC…UUCACUGCAGACUUGACGAAGCUG
Procedure, shortened: as §1

[3] = tested on: biotinyl-Trp-oxazolone; assay: self-aminoacylation, catalytic enhancement (BWO) (fold over background); higher = more active; k-Seq, kA / k0A0; sequences stand for … in GGGAAUGGAUCCACAUCUACGAAUUC…UUCACUGCAGACUUGACGAAGCUG
Procedure, shortened: as §1

[4] = tested on: biotinyl-Phe-oxazolone; assay: self-aminoacylation, catalytic enhancement (BFO) (fold over background); higher = more active; k-Seq, kA / k0A0; sequences stand for … in GGGAAUGGAUCCACAUCUACGAAUUC…UUCACUGCAGACUUGACGAAGCUG
Procedure, shortened: as §1

[5] = tested on: biotinyl-Leu-oxazolone; assay: self-aminoacylation, catalytic enhancement (BLO) (fold over background); higher = more active; k-Seq, kA / k0A0; sequences stand for … in GGGAAUGGAUCCACAUCUACGAAUUC…UUCACUGCAGACUUGACGAAGCUG
Procedure, shortened: as §1

[6] = tested on: biotinyl-Met-oxazolone; assay: self-aminoacylation, catalytic enhancement (BMO) (fold over background); higher = more active; k-Seq, kA / k0A0; sequences stand for … in GGGAAUGGAUCCACAUCUACGAAUUC…UUCACUGCAGACUUGACGAAGCUG
Procedure, shortened: as §1

| Sequence | self-aminoacylation [1] | self-aminoacylation [2] | self-aminoacylation [3] | self-aminoacylation [4] | self-aminoacylation [5] | self-aminoacylation [6] |
| --- | --- | --- | --- | --- | --- | --- |
| CCACACUUAAAGCAAUCGUUC [Fam1B.1 aminoacylation ribozyme variant] | 0.718 | 0.797 | 0.471 | 0.683 | 0.518 | 0.499 |
| CCACACUUAGAGCAAUCGGUC [Fam1B.1 aminoacylation ribozyme variant] | 1.01 | 1.05 | 0.71 | 1.07 | 0.837 | 0.855 |
| CCACACUUCAAACAAUCUGUC [Fam1B.1 aminoacylation ribozyme variant] | 0.417 | 0.602 | 0.467 | 0.813 | 0.321 | 0.364 |
| CCACACUUCAAACACUCGGUC [Fam1B.1 aminoacylation ribozyme variant] | 1.33 | 1.42 | 1.16 | 1.16 | 1.33 | 1.09 |
| CCACACUUCAACCAACCGGUC [Fam1B.1 aminoacylation ribozyme variant] | 1.08 | 1.07 | 1.69 | 0.57 | 1.03 | 0.626 |
| CCACACUUCAAGAAAUCAGUC [Fam1B.1 aminoacylation ribozyme variant] | 0.727 | 0.678 | 1.55 | 4.56 | 0.561 | 0.443 |
| CCACACUUCAAGAAAUCCGUC [Fam1B.1 aminoacylation ribozyme variant] | 0.778 | 0.817 | 0.651 | 0.659 | 0.688 | 0.563 |
| CCACACUUCAAGAGAUCGGUC [Fam1B.1 aminoacylation ribozyme variant] | 1.08 | 0.934 | 0.942 | 0.813 | 0.98 | 0.931 |
| CCACACUUCAAGCAAACGGAC [Fam1B.1 aminoacylation ribozyme variant] | 0.593 | 0.763 | 0.422 | 0.936 | 0.472 | 0.471 |
| CCACACUUCAAGCAAACGGUA [Fam1B.1 aminoacylation ribozyme variant] | 1.02 | 1.07 | 1.16 | 0.986 | 1.23 | 1.01 |
| CCACACUUCAAGCAACCUGUC [Fam1B.1 aminoacylation ribozyme variant] | 0.428 | 0.62 | 0.506 | 0.804 | 0.347 | 0.397 |
| CCACACUUCAAGCAAGCGCUC [Fam1B.1 aminoacylation ribozyme variant] | 0.976 | 1.3 | 0.756 | 0.847 | 1.1 | 0.744 |
| CCACACUUCAAGCAAGCGGGC [Fam1B.1 aminoacylation ribozyme variant] | 1.61 | 2.29 | 2.67 | 6.38 | 1.59 | 2.41 |
| CCACACUUCAAGCAAGCGUUC [Fam1B.1 aminoacylation ribozyme variant] | 0.689 | 0.728 | 0.492 | 0.905 | 0.516 | 0.454 |
| CCACACUUCAAGCAAUAAGUC [Fam1B.1 aminoacylation ribozyme variant] | 0.692 | 0.733 | 0.404 | 1.14 | 0.557 | 0.53 |
| CCACACUUCAAGCAAUAGGUU [Fam1B.1 aminoacylation ribozyme variant] | 1.05 | 1.05 | 0.617 | 0.838 | 0.859 | 1 |
| CCACACUUCAAGCAAUCAGAC [Fam1B.1 aminoacylation ribozyme variant] | 0.885 | 0.865 | 0.511 | 1.38 | 0.654 | 0.715 |
| CCACACUUCAAGCAAUCGAGC [Fam1B.1 aminoacylation ribozyme variant] | 0.549 | 0.76 | 0.527 | 0.688 | 0.638 | 0.491 |
| CCACACUUCAAGCAAUCGGGC [Fam1B.1 aminoacylation ribozyme variant] | 1.27 | 1.55 | 1.28 | 1.23 | 1.2 | 1.21 |
| CCACACUUCAAGCAAUCGUCC [Fam1B.1 aminoacylation ribozyme variant] | 0.54 | 0.652 | 1.06 | 1.57 | 0.518 | 0.412 |
| CCACACUUCAAGCAAUUAGUC [Fam1B.1 aminoacylation ribozyme variant] | 0.647 | 0.642 | 0.633 | 1.1 | 0.556 | 0.388 |
| CCACACUUCAAGCAAUUGCUC [Fam1B.1 aminoacylation ribozyme variant] | 0.938 | 1.06 | 0.936 | 0.673 | 0.966 | 0.87 |
| CCACACUUCAAGCAAUUGUUC [Fam1B.1 aminoacylation ribozyme variant] | 0.676 | 0.549 | 0.692 | 1.03 | 0.479 | 0.644 |
| CCACACUUCAAGCACUCAGUC [Fam1B.1 aminoacylation ribozyme variant] | 0.704 | 0.816 | 0.587 | 1.2 | 0.725 | 0.686 |
| CCACACUUCAAGCACUCGUUC [Fam1B.1 aminoacylation ribozyme variant] | 0.793 | 0.995 | 0.582 | 0.914 | 0.587 | 0.671 |
| CCACACUUCAAGCAGUCGAUC [Fam1B.1 aminoacylation ribozyme variant] | 0.519 | 0.64 | 0.431 | 1.02 | 0.511 | 0.368 |

| Sequence | self-aminoacylation [1] | self-aminoacylation [2] | self-aminoacylation [3] | self-aminoacylation [4] | self-aminoacylation [5] | self-aminoacylation [6] |
| --- | --- | --- | --- | --- | --- | --- |
| CCACACUUCAAGCAGUCGGUU [Fam1B.1 aminoacylation ribozyme variant] | 1.34 | 1.63 | 1.23 | 0.656 | 1.1 | 1.53 |
| CCACACUUCAAGCAGUGGGUC [Fam1B.1 aminoacylation ribozyme variant] | 0.786 | 1.22 | 0.775 | 0.562 | 0.845 | 0.96 |
| CCACACUUCAAGCAUUCGGUA [Fam1B.1 aminoacylation ribozyme variant] | 1.95 | 2.44 | 1.97 | 1.39 | 1.7 | 1.76 |
| CCACACUUCAAGCAUUGGGUC [Fam1B.1 aminoacylation ribozyme variant] | 1.04 | 1.4 | 0.956 | 0.918 | 0.83 | 1.03 |
| CCACACUUCAAGCCAUCAGUC [Fam1B.1 aminoacylation ribozyme variant] | 0.81 | 0.769 | 0.625 | 1.07 | 0.892 | 0.695 |
| CCACACUUCAAGCCAUCGAUC [Fam1B.1 aminoacylation ribozyme variant] | 0.704 | 0.639 | 0.6 | 1.08 | 0.56 | 0.442 |
| CCACACUUCAAGCCAUCGGAC [Fam1B.1 aminoacylation ribozyme variant] | 1.32 | 1.22 | 1.03 | 0.873 | 1.23 | 1.26 |
| CCACACUUCAAGCCAUCGGUA [Fam1B.1 aminoacylation ribozyme variant] | 1.53 | 1.4 | 1.05 | 0.774 | 1.88 | 1.7 |
| CCACACUUCAAGCCUUCGGUC [Fam1B.1 aminoacylation ribozyme variant] | 1.4 | 1.54 | 1.17 | 1.95 | 1.4 | 1.34 |
| CCACACUUCAAGCGAUCGAUC [Fam1B.1 aminoacylation ribozyme variant] | 0.533 | 0.634 | 0.362 | 0.936 | 0.461 | 0.469 |
| CCACACUUCAAGGAAUCGUUC [Fam1B.1 aminoacylation ribozyme variant] | 0.649 | 0.611 | 0.695 | 0.582 | 0.464 | 0.495 |
| CCACACUUCAAGGAGUCGGUC [Fam1B.1 aminoacylation ribozyme variant] | 1.1 | 1.13 | 0.878 | 0.756 | 0.92 | 1.06 |
| CCACACUUCAAGUAACCGGUC [Fam1B.1 aminoacylation ribozyme variant] | 0.968 | 1 | 0.824 | 0.767 | 0.957 | 1.05 |
| CCACACUUCAAGUAAGCGGUC [Fam1B.1 aminoacylation ribozyme variant] | 0.828 | 0.885 | 0.638 | 0.452 | 0.733 | 0.811 |
| CCACACUUCAAUCAAUCCGUC [Fam1B.1 aminoacylation ribozyme variant] | 0.655 | 0.823 | 0.611 | 0.663 | 0.61 | 0.641 |
| CCACACUUCAAUCAAUCGGUU [Fam1B.1 aminoacylation ribozyme variant] | 1.47 | 1.21 | 5.87 | 7.61 | 1.34 | 1.16 |
| CCACACUUCACGCAAUCGGAC [Fam1B.1 aminoacylation ribozyme variant] | 1.07 | 1.17 | 1.24 | 0.401 | 1.07 | 1.15 |
| CCACACUUCAGGCAAUCGGAC [Fam1B.1 aminoacylation ribozyme variant] | 1.4 | 1.54 | 1.45 | 0.822 | 1.45 | 0.999 |
| CCACACUUCAGGGAAUCGGUC [Fam1B.1 aminoacylation ribozyme variant] | 1.5 | 1.46 | 1.7 | 0.965 | 1.45 | 1.46 |
| CCACACUUCAGUCAAUCGGUC [Fam1B.1 aminoacylation ribozyme variant] | 1.11 | 0.965 | 1.31 | 1.06 | 1.03 | 1.02 |
| CCACACUUCAUGAAAUCGGUC [Fam1B.1 aminoacylation ribozyme variant] | 0.749 | 0.73 | 0.546 | 0.535 | 0.65 | 0.654 |
| CCACACUUCAUGCAAUCCGUC [Fam1B.1 aminoacylation ribozyme variant] | 1.03 | 0.904 | 1.23 | 0.659 | 0.748 | 0.649 |
| CCACACUUCAUGCACUCGGUC [Fam1B.1 aminoacylation ribozyme variant] | 0.887 | 0.862 | 0.663 | 0.53 | 0.762 | 0.689 |
| CCACACUUCCAGCAAUAGGUC [Fam1B.1 aminoacylation ribozyme variant] | 0.91 | 0.985 | 0.593 | 1.04 | 0.535 | 0.687 |
| CCACACUUCCAGCAAUCAGUC [Fam1B.1 aminoacylation ribozyme variant] | 0.791 | 0.871 | 0.456 | 0.899 | 0.669 | 0.634 |
